From paper PMC7774954, “Interactomic affinity profiling by holdup assay: Acetylation and distal residues impact the PDZome-binding specificity of PTEN phosphatase” (PLoS ONE, 2020)
Results are given in words; binding and its absence hold for the method and conditions named.

Chains of the proteins cited; added tags and fusions are not shown. Lines headed by an entry give the natural chain unless they say otherwise; changes in a name come on top. Residues count along the entry.
UniProt P60484: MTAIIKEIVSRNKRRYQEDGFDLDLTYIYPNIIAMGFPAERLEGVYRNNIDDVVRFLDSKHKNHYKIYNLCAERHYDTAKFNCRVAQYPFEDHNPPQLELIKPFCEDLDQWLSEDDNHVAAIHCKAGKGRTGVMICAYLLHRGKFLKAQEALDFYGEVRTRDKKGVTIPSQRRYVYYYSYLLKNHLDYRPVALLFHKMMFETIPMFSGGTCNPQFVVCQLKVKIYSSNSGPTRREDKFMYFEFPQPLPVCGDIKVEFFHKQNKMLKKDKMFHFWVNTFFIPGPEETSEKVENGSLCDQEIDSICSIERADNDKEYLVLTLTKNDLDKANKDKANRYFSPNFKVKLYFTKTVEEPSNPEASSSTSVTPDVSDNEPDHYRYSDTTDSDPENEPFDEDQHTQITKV
GRIP2-1 (Q9C0E4, residues 48-131): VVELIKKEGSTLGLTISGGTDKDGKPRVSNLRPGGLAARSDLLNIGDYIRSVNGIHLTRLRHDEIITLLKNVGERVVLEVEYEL
GRIP2-2 (Q9C0E4, residues 148-234): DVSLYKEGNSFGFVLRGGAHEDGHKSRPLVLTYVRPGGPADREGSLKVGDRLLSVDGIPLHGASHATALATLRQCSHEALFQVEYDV
GRIP2-3 (Q9C0E4, residues 248-332): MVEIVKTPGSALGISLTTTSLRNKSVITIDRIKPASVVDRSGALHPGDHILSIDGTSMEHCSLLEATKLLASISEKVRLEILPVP
GRIP2-4 (Q9C0E4, residues 456-545): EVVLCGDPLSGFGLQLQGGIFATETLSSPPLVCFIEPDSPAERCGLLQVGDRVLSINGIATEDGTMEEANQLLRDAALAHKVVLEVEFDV
GRIP2-5 (Q9C0E4, residues 557-641): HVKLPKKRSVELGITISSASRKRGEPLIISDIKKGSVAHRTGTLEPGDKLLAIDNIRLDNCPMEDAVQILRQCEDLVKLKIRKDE
GRIP2-6 (Q9C0E4, residues 656-738): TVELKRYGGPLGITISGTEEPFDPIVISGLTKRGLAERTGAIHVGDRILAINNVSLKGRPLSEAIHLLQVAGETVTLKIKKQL
GRIP2-7 (Q9C0E4, residues 941-1023): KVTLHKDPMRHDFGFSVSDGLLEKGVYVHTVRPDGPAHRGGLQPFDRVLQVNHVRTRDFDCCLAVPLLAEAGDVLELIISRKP
PARD3B-2 (Q8TEW8, residues 383-468): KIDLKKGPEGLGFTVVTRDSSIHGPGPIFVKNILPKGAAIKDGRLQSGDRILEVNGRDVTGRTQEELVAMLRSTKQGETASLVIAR
PARD3B-3 (Q8TEW8, residues 498-585): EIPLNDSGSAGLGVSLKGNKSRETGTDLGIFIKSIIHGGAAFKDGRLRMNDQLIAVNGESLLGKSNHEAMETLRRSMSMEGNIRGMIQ
UniProt Q8TEW0, residues 461-546: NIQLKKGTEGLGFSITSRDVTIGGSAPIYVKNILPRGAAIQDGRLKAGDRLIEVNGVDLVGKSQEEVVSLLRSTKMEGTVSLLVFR
MAGI1-1 (Q96QZ7, residues 17-105): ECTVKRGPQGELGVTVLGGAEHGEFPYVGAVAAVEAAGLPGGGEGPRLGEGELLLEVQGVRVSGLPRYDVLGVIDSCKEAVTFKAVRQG
MAGI1-2 (Q96QZ7, residues 472-554): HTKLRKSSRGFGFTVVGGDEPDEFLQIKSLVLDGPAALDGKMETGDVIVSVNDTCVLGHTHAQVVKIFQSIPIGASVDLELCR
MAGI1-4 (Q96QZ7, residues 813-895): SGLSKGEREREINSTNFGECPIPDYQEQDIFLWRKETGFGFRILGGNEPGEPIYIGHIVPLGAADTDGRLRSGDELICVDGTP
MAGI1-6 (Q96QZ7, residues 1124-1206): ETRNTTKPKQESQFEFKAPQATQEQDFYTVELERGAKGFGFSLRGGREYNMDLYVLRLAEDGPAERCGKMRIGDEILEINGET
UniProt Q9Y3R0, residues 673-755: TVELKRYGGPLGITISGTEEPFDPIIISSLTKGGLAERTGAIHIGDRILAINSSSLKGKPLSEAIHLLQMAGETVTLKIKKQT
UniProt A4D2P6, residues 3-84: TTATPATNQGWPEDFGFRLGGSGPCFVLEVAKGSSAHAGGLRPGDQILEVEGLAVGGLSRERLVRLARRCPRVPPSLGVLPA

Legend:
PTEN_11 (human) [1] = target: PTEN_11 (human) (UniProt P60484); assay: holdup assay; biotinylated PBM peptide on streptavidin resin, biotin resin as reference; tag-PDZ at 4 uM in crude E. coli lysate, 15 min, filtrate read by capillary electrophoresis; singlicate; BI converted into KD with the mean peptide concentration back-calculated from FP (34, 28, 25, 17 uM); LogKD is -log10 of KD in M, overall uncertainty ± 0.12; cells at the column's lower value are pairs without detected binding; only the target purified
PTEN_13 (human) [2] = target: PTEN_13 (human) (UniProt P60484); assay: as above
PTEN_Ac (human) [3] = target: PTEN_Ac (human) (UniProt P60484); assay: as above
PTEN_KR (human) [4] = target: PTEN_KR (human) (UniProt P60484); assay: as above
PTEN_11 (human) [5] = target: PTEN_11 (human) (UniProt P60484); assay: holdup assay; biotinylated PBM peptide saturating streptavidin resin (biotin resin as reference); tag-PDZ at 4 uM in crude E. coli lysate, 15 min, filtration, free tag-PDZ by capillary electrophoresis; singlicate; BI cut-off 0.20; BI converted into KD with the peptide concentration back-calculated from FP; only the target purified
PTEN_13 (human) [6] = target: PTEN_13 (human) (UniProt P60484); assay: as above
PTEN_Ac (human) [7] = target: PTEN_Ac (human) (UniProt P60484); assay: as above
PTEN_KR (human) [8] = target: PTEN_KR (human) (UniProt P60484); assay: as above

| Substance | binding (PTEN_11 (human) [1]) | binding (PTEN_13 (human) [2]) | binding (PTEN_Ac (human) [3]) | binding (PTEN_KR (human) [4]) | binding (PTEN_11 (human) [5]) | binding (PTEN_13 (human) [6]) | binding (PTEN_Ac (human) [7]) | binding (PTEN_KR (human) [8]) |
| --- | --- | --- | --- | --- | --- | --- | --- | --- |
| GRIP2-1 (from UniProt Q9C0E4 48-131) (domain or fragment) | no binding (tested: lower value) | no binding (tested: lower value) | no binding (tested: lower value) | no binding (tested: lower value) | – | – | – | – |
| PARD3B-3 (from UniProt Q8TEW8 498-585) (domain or fragment) | no binding (tested: lower value) | – | no binding (tested: lower value) | no binding (tested: lower value) | – | – | – | – |
| PARD3-2 (from UniProt Q8TEW0 461-546) (domain or fragment) | – | no binding (tested: lower value) | no binding (tested: lower value) | – | – | – | – | – |
| MAGI1-1 (from UniProt Q96QZ7 17-105) (domain or fragment) | no binding (tested: lower value) | no binding (tested: lower value) | no binding (tested: lower value) | no binding (tested: lower value) | – | – | – | – |
| GRIP2-4 (from UniProt Q9C0E4 456-545) (domain or fragment) | no binding (tested: lower value) | no binding (tested: lower value) | – | no binding (tested: lower value) | – | – | – | – |
| MAGI1-2 (from UniProt Q96QZ7 472-554) (domain or fragment) | – | – | – | – | no binding (tested: BI cut-off 0.20) | no binding (tested: BI cut-off 0.20) | no binding (tested: BI cut-off 0.20) | no binding (tested: BI cut-off 0.20) |
| MAGI1-6 (from UniProt Q96QZ7 1124-1206) (domain or fragment) | no binding (tested: lower value) | no binding (tested: lower value) | no binding (tested: lower value) | no binding (tested: lower value) | – | – | – | – |

Second part, the substance after the results:

| binding (PTEN_11 (human) [1]) | binding (PTEN_13 (human) [2]) | binding (PTEN_Ac (human) [3]) | binding (PTEN_KR (human) [4]) | binding (PTEN_11 (human) [5]) | binding (PTEN_13 (human) [6]) | binding (PTEN_Ac (human) [7]) | binding (PTEN_KR (human) [8]) | Substance |
| --- | --- | --- | --- | --- | --- | --- | --- | --- |
| no binding (tested: lower value) | no binding (tested: lower value) | no binding (tested: lower value) | no binding (tested: lower value) | – | – | – | – | GRIP2-5 (from UniProt Q9C0E4 557-641) (domain or fragment) |
| – | no binding (tested: lower value) | – | – | – | – | – | – | GRIP2-2 (from UniProt Q9C0E4 148-234) (domain or fragment) |
| no binding (tested: lower value) | no binding (tested: lower value) | no binding (tested: lower value) | no binding (tested: lower value) | – | – | – | – | GRIP2-3 (from UniProt Q9C0E4 248-332) (domain or fragment) |
| no binding (tested: lower value) | no binding (tested: lower value) | no binding (tested: lower value) | no binding (tested: lower value) | – | – | – | – | GRIP1-6 (from UniProt Q9Y3R0 673-755) (domain or fragment) |
| no binding (tested: lower value) | no binding (tested: lower value) | no binding (tested: lower value) | no binding (tested: lower value) | – | – | – | – | GRIP2-7 (from UniProt Q9C0E4 941-1023) (domain or fragment) |
| – | no binding (tested: lower value) | no binding (tested: lower value) | – | – | – | – | – | GRIP2-6 (from UniProt Q9C0E4 656-738) (domain or fragment) |
| – | no binding (tested: lower value) | – | – | – | – | – | – | MAGI1-4 (from UniProt Q96QZ7 813-895) (domain or fragment) |
| no binding (tested: lower value) | no binding (tested: lower value) | no binding (tested: lower value) | no binding (tested: lower value) | – | – | – | – | GRID2IP-1 (from UniProt A4D2P6 3-84) (domain or fragment) |
| no binding (tested: lower value) | no binding (tested: lower value) | no binding (tested: lower value) | no binding (tested: lower value) | – | – | – | – | PARD3B-2 (from UniProt Q8TEW8 383-468) (domain or fragment) |
